Source: patent US12723255B2, “Herbicide tolerance genes and methods of use thereof” (priority 2014, dated 2026)
Positions count from the first letter of the chain named. Some of these results come from one statement about several compounds together. Some ranges recur; such a range may be that of the whole group of compounds.

B1: MON-HT13: engineered oxygenase protein, amino acid sequence SEQ ID NO:47 (protein)
chain: MHAALTPLTNKYRFIDVQPLTGVLGAEITGVDLREPLDDSTWNEILDAFHTYQVIYFPGQAITNEQHIAFSRRFGPVDPVPILKSIEGYPEVQMIRREANESSRYIGDDWHADSTFLDAPPAAVVMRAIEVPEYGGDTGFLSMYSAWETLSPTMQATIEGLNVVHSATKVFGSLYQATNWRFSGTSVKVMDVDAGDRETVHPLVVTHPVTGRRALYCNQVYCQKIQGMTDAESKSLLQFLYEHATQFDFTCRVRWKKDQVLVWDNLCTMHRAVPDYAGKFRYLTRTTVAGDKPSR
B2: MON-HT3: engineered oxygenase protein, amino acid sequence SEQ ID NO:22 (protein)
chain: MHAALSPLSQRFERIAVQPLTGVLGAEITGVDLREPLDDSTWNEILDAFHTYQVIYFPGQAITNEQHIAFSRRFGPVDPVPLLKSIEGYPEVQMIRREANESGRVIGDDWHTDSTFLDAPPAAVVMYAKEVPPYGGDTLFASMYTAWETLSPTMQATIEGLNVVHSATRVFGSLYQAQNRRFSNTSVKVMDVDAGDRETVHPLVVTHPETGRKGLYVNQVYCQRIEGMSEKESEPLLSFLFAHATKPEFTCRVRWQEGQVLVWDNLCTQHFAVPDYAGKFRYLTRTTVGGVRPAR
B3: MON-HT4: engineered oxygenase protein, amino acid sequence SEQ ID NO:25 (protein)
chain: MHAALTPLTNKYRFIDVQPLTGVLGAEITGVDLREPLDDSTWNEILDAFHTYQVIYFPGQAITNEQHIAFSRRFGPVDPVPLLKSIEGYPEVQMIRREANESGRVIGDDWHTDSTFLDAPPAAVVMYAREVPPYGGDTGFLSMYTAWETLSPTMQATIEGLNVVHSATRVFGSLYQAQNRRYSNTSVKVMDVDAGDRETVHPLVVSHPVTGRRALYCNQVYCQRIEGMTDAESKSLLQFLYEHATKFDFTCRVRWKKDQVLVWDNLCTMHRAVPDYAGKFRYLTRTTVAGDKPSR
B4: MON-HT7: engineered oxygenase protein, amino acid sequence SEQ ID NO:34 (protein)
chain: B1 chain with I82L, S103G, Y105V, G184N, Q246K, A272S
B5: MON-HT18: engineered oxygenase protein, amino acid sequence SEQ ID NO:52 (protein)
chain: B1 chain with F14H, G184N

Key:
[1] = type: physicochemical; conditions: Table 11 series
Procedure: A protein melting analysis was also conducted. For the protein melting determinations, purified enzyme was added to 96-well microtiter plates in standard storage buffer (30 mM Tris pH7.5, 150 mM NaCl) with or without 50 uM Fe2+ and 1.0 mM aKG. Protein unfolding was then detected with SYPRO® orange protein gel stain (Invitrogen™ catalog #S6651, Life Technologies, Grand Island, NY) in a BioRad CFX96™ Real time PCR machine (BioRad, Hercules, CA) with readings taken between 10° C. to 95° C. in 0.5° C. steps. […] In contrast, 50 uM Fe2+ and 1.0 mM aKG had little effect on the stability of any of the engineered proteins. MON-HT55, MON-HT3, MON-HT4, MON-HT6, and MON-HT10 had melting temperatures in the range of 41° C. to 48° C., which is below the melting temperature of the wild-type enzyme. MON-HT1, MON-HT2, MON-HT5, MON-HT7, MON-HT8, and MON-HT9 had melting temperatures between 58° C. and 67° C., which is 8° C. to 17° C. higher than the wild-type enzyme. For MON-HT7 and MON-HT1, the difference in melting point was 11° C. in buffer without Fe2+ and aKG and 8° C. in buffer with Fe2+ and aKG. This was surprising since there are only four amino acid differences between the two enzymes.
A protein melting analysis was conducted as detailed above. The melting temperatures of MON-HT13, MON-HT15, and MON-HT17 was similar to the melting temperature of MON-HT1 with T1/2 in buffer in the range of 55-58° C., and with T1/2 in buffer plus Fe2+ and aKG in the range of 60-62° C.

[2] = system: transgenic soybean plants; test: R0 soybean 2,4-D spray test of 2,4-D optimized variants; type: in vivo; conditions: 2× application rate; soy
Text: An additional five engineered proteins optimized for activity for 2,4-D were then selected for analysis in transgenic soybean. DNA constructs were produced for expressing MON-HT13 (SEQ ID NO:47), MON-HT14 (SEQ ID NO:48), MON-HT15 (SEQ ID NO:49), MON-HT17 (SEQ ID NO:51), and MON-HT18 (SEQ ID NO:52) with codon usage optimized for dicot expression. The operably linked expression elements (promoter, leader, intron, CTP, and 3′UTR) were identical in all of the constructs. Leaf samples were taken from R0 plantlets and single copy plants were identified using a PCR-based assay. When the single-copy R0 plants had approximately two to three trifoliate leaves, they were treated with either 1.5 lb ae/acre (2×) or 3.0 lb ae/acre (4×) of 2,4-D. Seven days after herbicide application, the plants were scored for herbicide injury based on the percent area of the plant showing injury, as indicated above.

F1 hybrid maize plants [3] = test: plant-based assay for heat sensitivity, quizalofop-P tolerance; type: in vivo; conditions: 2× quizalofop-P; day/night 38° C./30° C.; ten days post treatment; 0 no visible injury, 5 dead plants
Procedure: A plant-based enzyme activity assay for heat sensitivity was used to determine the effect of elevated growth temperatures on the herbicide tolerance of transgenic plants containing the optimized engineered proteins. To test for quizalofop-P tolerance at elevated growth temperatures, F1 hybrid (produced by crossing an R1 homozygous plant expressing one of the MON-HT proteins with inbred maize event MON89034) maize seed was grown in a growth chamber for 10 days at a day temperature of 28° C. and a night temperature of 20° C. with 50% humidity. After 10 days, the plants were moved to acclimate for 3 days at one of three different day and night temperature regimens: (1) both day and night temperatures set at 20° C.; (2) day temperature at 28° C. and night temperature at 20° C.; or (3) day temperature at 38° C. and night temperature at 30° C. At the end of the acclimation period, the plants were generally at V4 growth stage and were sprayed with 2× quizalofop-P. Ten days post treatment the plants were scored for injury on a rating scale of 1 to 5 where ‘0’ is no visible injury observed, ‘1’ is chlorotic speckling, ‘2’ is chlorotic streaking, ‘3’ there are leaf gaps or tears, ‘4’ are plants with stunted growth and/or twisted leaves, and ‘5’ are dead plants or no growth observed. […] (FIG. 4A) or 28° C./20° C. (FIG. 4B) relative to the F1 hybrid control plants (maize events NK603 × MON89034) (injury rating of 5). When the day/night temperatures were 38° C./30° C. […] The engineered proteins optimized for activity in higher temperatures provided AOPP herbicide tolerance when plants expressing these engineered proteins were exposed to high temperatures.

F1 hybrid maize plants [4] = test: efficacy field trial for 2,4-D tolerance; type: in vivo; conditions: operably linked to a CTP; 2×-16×
Procedure: (§1) Separate trait efficacy field trials for quizalofop-P and 2,4-D were conducted at two locations cach with F1 hybrid transgenic plants produced by crossing an inbred plant containing maize event MON89034 with an R1 plant containing MON-HT55 (with a CTP), MON-HTI (with or without a CTP), MON-HT2 (with or without a CTP), MON-HT3 (with a CTP), MON-HT4 (with a CTP), MON-HT5 (with a CTP), MON-HT6 (with a CTP), or MON-HT7 (with a CTP). Transgenic F1 hybrid plants containing maize events NK603×MON89034 were used for comparison as a control.
In the efficacy field trial for 2,4-D tolerance, one of four herbicide treatments was used: (1) 2,4-D amine at 2 lb ac/acre (2×) plus 0.25% v/v non-ionic surfactant (NIS) applied to VE to V2 followed by V4 followed by V8; (2) 2,4-D amine at 4 lb ac/acre (4×) plus 0.25% v/v NIS applied to VE to V2 followed by V4 followed by V8; (3) 2,4-D amine at 8 lb ac/acre (8×) plus 0.25% v/v NIS applied to VE to V2 followed by V4 followed by V8 maize; or (4) 2,4-D amine at 16 lb ac/acre (16×) plus 0.25% v/v NIS applied to VE to V2 followed by V4 followed by V8. Plots were visually rated as above. Tables 14 and 15 show the average injury ratings after herbicide application at V4 or V8 growth stage, respectively.

F1 hybrid maize plants [5] = test: efficacy field trial for quizalofop-P tolerance and clethodim sensitivity; type: in vivo; conditions: operably linked to a CTP; 4×, 8×, 16×
Procedure: as §1
In the efficacy field trial for quizalofop-P tolerance and clethodim sensitivity, one of four herbicide treatments was used: (1) quizalofop-P (Assure II) at 0.32 lb ai/acre (4×) plus 0.25% v/v non-ionic surfactant (NIS) applied at VE-V2 growth stage followed by the same at V4 growth stage followed by the same at V8 growth stage; (2) quizalofop-P at 0.64 lb ai/acre (8×) plus 0.25% v/v NIS applied at VE to V2 growth stage followed by the same at V4 growth stage followed by the same at V8 growth stage; (3) quizalofop-P at 1.28 lb ai/acre (16×) plus 0.25% v/v NIS applied at VE to V2 growth stage followed by the same at V4 growth stage followed by the same at V8growth stage; or (4) clethodim at 0.25 lb ai/acre (1×) plus 0.25% v/v NIS applied at V8 growth stage. Plots were visually rated 10-14 days after application for crop injury on a scale of 0 to 100with “0” being none and “100” being complete crop destruction. Tables 14 and 15 show the average injury ratings after herbicide application at V4 or V8 growth stage, respectively.

F1 hybrid maize plants [6] = test: 2,4-D tolerance at elevated growth temperatures; type: in vivo; conditions: 4× 2,4-D amine, ten days after treatment
Procedure: To test for 2,4-D tolerance at elevated growth temperatures, F1 hybrid plants were produced by crossing an R1 plant containing MON-HTI, MON-HT2, MON-HT3, MON-HT4, MON-HT7, or MON-HT55 with an inbred plant containing maize event MON89034. The F1 hybrid plants were grown in a greenhouse for one week at a minimum temperature of 20° C. and a maximum temperature of 28° C. with 50 to 80% humidity. After 1 week, the plants were moved to acclimate for three days at one of two different day and night temperature regimens: (1) both day and night temperatures set at 20° C. or (2) day temperature at 38° C. and night temperature at 30° C. At the end of the acclimation period, the plants were generally at V4 growth stage and were sprayed with 4× 2,4-D amine. Ten days after treatment the plants were scored for injury using an injury scale of 0 to 100 with “0” being no injury and “100” being a dead plant. When plants were acclimated at day/night temperatures of 20° C./20° C. prior to application of 4× 2,4-D amine, F1 plants containing MON-HT1, MON-HT2, MON-HT3, MON-HT4, MON-HT7, or MON-HT55 had injury rating averages of <10%, and the control plants had injury rating averages of <20% (FIG. 4D). When plants were acclimated at day/night temperatures of 38° C./30° C. prior to application of 4× 2,4-D amine, F1 plants containing MON-HT4 or MON-HT7 had injury rating averages of <20%, F1 plants containing MON-HT1, MON-HT2 or MON-HT3 had injury rating averages of <10% (FIG. 4E), and the control plants and plants containing MON-HT55 F1 plants had injury rating averages of 50% (FIG. 4E).

| Molecule | Melting temp, Buffer [1] | Melting temp, Buffer plus Fe2+ and aKG [1] | injury rating of the one event not <20% [2] | injury rating (F1 hybrid maize plants [3]) | injury ratings across all 2,4-D application rates at V4 growth stage (F1 hybrid maize plants [4]) | injury ratings across all 2,4-D application rates at V8 growth stage (F1 hybrid maize plants [4]) | injury ratings across all quizalofop-P application rates, V4 and V8 (F1 hybrid maize plants [5]) | injury rating averages (F1 hybrid maize plants [6]; day/night 20° C./20° C.) | injury rating averages (F1 hybrid maize plants [6]; day/night 38° C./30° C.) |
| --- | --- | --- | --- | --- | --- | --- | --- | --- | --- |
| B1 | 55-58 °C | 60-62 °C | 20-30% | – | – | – | – | – | – |
| B2 | – | – | – | ≤ 1 | less than 20% | less than 22% | less than 15% | < 10% | < 10% |
| B3 | – | – | – | ≤ 1 | less than 20% | less than 22% | less than 15% | < 10% | < 20% |
| B4 | – | – | – | ≤ 1 | less than 20% | less than 22% | less than 15% | < 10% | < 20% |
| B5 | – | – | 20-30% | – | – | – | – | – | – |
